Reference: PubChem BioAssay AID652259 (Drosophila RNAi Screening Center, 2013)
The screen tested about 22,000 reagents; shown is a random part of those that have a named target and a result. In the full data, 233 (1.1%) are marked active. 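Light values are raw, unnormalised plate reads; the ratio scores behind the reporter calls were not deposited.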 The numbers tell different reagents against one gene apart. Not given: the amount of reagent, the time to read-out, the dose of the treatment.

Assay: 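Genome-wide hunt for genes that control Wingless pathway activity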 (primary screen)
Cells: Drosophila clone 8 imaginal disc epithelial cells
Knock-down reagent: long dsRNA against Drosophila genes
Challenge: pathway stimulated by co-transfected Wingless expression plasmid
Measurement: 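Dual luciferase reads per well after Wingless plasmid stimulation: reporter firefly light and Renilla control light; activity is firefly divided by Renilla, a ratio not deposited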
Direction: firefly reporter light: higher = more Wg reporter light, before normalisation; Renilla control light: higher = more transfected or surviving cells
Active means: 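a knock-down is a candidate when at least two out of four statistical tests show it departing from its plate mean; one test alone signals a weak candidate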
Meaning of the calls: active = candidate regulator (raises or lowers reporter); inactive = not a candidate

gene	reagent no.	reporter change call, replicate 1	firefly reporter light, replicate 1	firefly reporter light, replicate 2	Renilla control light, replicate 1	Renilla control light, replicate 2	Call
Vha16-3 (GeneID 317846)	1		5933		3893		inactive
CG31345 (GeneID 41576)	1		17056		4036		inactive
CG31345 (GeneID 41576)	2		19738		5345		inactive
CG34202 (GeneID 5740498)	1		15504		9616		inactive
Lcp2 (GeneID 35818)	1		2833	5094	936	1552	inactive
CG4151 (GeneID 31465)	1		20214		8265		inactive
Lime (GeneID 36023)	1		5936	16075	1728	5271	inactive
CG6230 (GeneID 34546)	1		7545		2835		inactive
Cdk7 (GeneID 31441)	1		24736		9803		inactive
pnt (GeneID 42757)	1	Wg reporter activity raised	38956		8068		active
CG4293 (GeneID 31001)	1		2316	5989	856	1549	inactive
CG10702 (GeneID 35181)	1		6432		2180		inactive
ATP8B (GeneID 41469)	1		3097		835		inactive
ATP8B (GeneID 41469)	2		15418		4937		inactive
beat-Ic (GeneID 34945)	1		23251		7825		inactive
beat-Ic (GeneID 34945)	2		3401	2194	731	1481	inactive
CG9459 (GeneID 41213)	1		17184		5078		inactive

Continued, starting with the last 6 of the part before.
gene	reagent no.	reporter change call, replicate 1	firefly reporter light, replicate 1	firefly reporter light, replicate 2	Renilla control light, replicate 1	Renilla control light, replicate 2	Call
CG10702 (GeneID 35181)	1		6432		2180		inactive
ATP8B (GeneID 41469)	1		3097		835		inactive
ATP8B (GeneID 41469)	2		15418		4937		inactive
beat-Ic (GeneID 34945)	1		23251		7825		inactive
beat-Ic (GeneID 34945)	2		3401	2194	731	1481	inactive
CG9459 (GeneID 41213)	1		17184		5078		inactive
sti (GeneID 39429)	1		5756		2326		inactive
sti (GeneID 39429)	2		5001		2074		inactive
bap (GeneID 42537)	1		4938		1771		inactive
CG15143 (GeneID 35062)	1		2779	5653	1016	2953	inactive
nrm (GeneID 40515)	1		2125		845		inactive
nrm (GeneID 40515)	2		3525		1200		inactive
nrm (GeneID 40515)	3		15333		4962		inactive
CG14280 (GeneID 42312)	1		10416		2435		inactive
CG14072 (GeneID 34513)	1		1809	3973	887	2569	inactive
MME1 (GeneID 33987)	1		11514		4708		inactive
hep (GeneID 32256)	1		18379		8330		inactive
hep (GeneID 32256)	2		13597		6914		inactive
CG43271 (GeneID 12798001)	1		20883		9127		inactive
CG43271 (GeneID 12798001)	2		5.41e5	4.04e5	3.44e5	1.82e5	inactive
svp (GeneID 41491)	1		3584		1251		inactive
svp (GeneID 41491)	2	Wg reporter activity raised	14823		1696		active
svp (GeneID 41491)	3		24624		6299		inactive
CG42565 (GeneID 37598)	1		2600	4213	851	1905	inactive
Syb (GeneID 36080)	1		12097		3818		inactive
Sod1 (GeneID 39251)	1		6653		2812		inactive
Sas-6 (GeneID 43555)	1		7802		3026		inactive
RpLP1 (GeneID 33214)	1		2192	7850	848	3037	inactive
RpLP1 (GeneID 33214)	2		4.14e5	4.35e5	1.07e5	1.28e5	inactive
CG14695 (GeneID 41314)	1		15510		3514		inactive
tsr (GeneID 37841)	1		2464	6778	864	3562	inactive
CG31793 (GeneID 326161)	1		1857	3399	256	1747	inactive
Gr36b (GeneID 117487)	1		5.40e5	5.53e5	2.98e5	2.03e5	inactive
Atg8a (GeneID 32001)	1		22838		11045		inactive
bma (GeneID 5740442)	1		5963		3789		inactive
bma (GeneID 5740442)	2		6457		4176		inactive
Ir7e (GeneID 7354417)	1		3444		1149		inactive
ppk14 (GeneID 33887)	1		2215	10866	181	4346	inactive
